Measured data: PubChem BioAssay AID504764 (Drosophila RNAi Screening Center, 2011)

Assay: 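Knock-downs that raise or lower a Notch target reporter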 (primary screen)
System: Drosophila Kc167 cells
Knock-down reagent: long dsRNA against Drosophila genes
Timing: about 5 days (4 days dsRNA, then 24 h after transfection)
Challenge: transfection of constitutively active membrane-tethered Notch lacking the extracellular domain, read 24 h later
Measurement: 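Firefly luciferase from an E(spl)m3 reporter with active Notch, plus control-promoter and uninduced reporter wells for normalisation; unnormalised counts, duplicate wells a and b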
Reading the numbers: induced reporter light, run 1, well a and induced reporter light, run 1, well b: higher = more light from the Notch target reporter with active Notch; control promoter light, run 1, well a and control promoter light, run 1, well b: higher = more light from the viral control promoter (cell number, transfection, viability); uninduced reporter light, run 1, well a: higher = more light from the Notch target reporter without active Notch
Rule for the call: 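Wells with low control signal or poorly matching duplicates excluded; duplicates averaged; per source plate, z beyond ±2 for induced/control log2 ratio or beyond ±1.8 for induced/uninduced marks a hit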
Meaning of the calls: active = modifier hit (raised or lowered Notch signal); inactive = not a hit
The screen tested about 22,000 reagents; this is an unselected part of those that have a named target and a result. Of all reagents, 403 (1.9%) got an active call. 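Unnormalised raw counts per well; ratio z-scores behind the hit calls and whether each hit raises or lowers signal are not deposited.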 Not stated in the record: the amount of reagent.

Edg91 (Ecdysone-dependent gene 91) [DRSC16657] gave induced reporter light, run 1, well a = 1.91e5; induced reporter light, run 1, well b = 2.52e5; control promoter light, run 1, well a = 2.23e5; control promoter light, run 1, well b = 2.26e5; uninduced reporter light, run 1, well a = 16825; inactive.
For Nubp1 (NUBP iron-sulfur cluster assembly factor 1) [DRSC02639], the entry reads induced reporter light, run 1, well a = 1.88e5; induced reporter light, run 1, well b = 2.06e5; control promoter light, run 1, well a = 1.81e5; control promoter light, run 1, well b = 1.71e5; uninduced reporter light, run 1, well a = 18140; inactive.
Knock-down of CG15120 [DRSC06542] came out at: induced reporter light, run 1, well a = 44155; induced reporter light, run 1, well b = 33465; control promoter light, run 1, well a = 48585; control promoter light, run 1, well b = 49000; uninduced reporter light, run 1, well a = 3780; inactive.
After knock-down of wapl (wings apart-like) [DRSC18851], the record shows induced reporter light, run 1, well a = 1.63e5; induced reporter light, run 1, well b = 1.49e5; control promoter light, run 1, well a = 2.09e5; control promoter light, run 1, well b = 1.93e5; uninduced reporter light, run 1, well a = 11192; inactive.
For CG11374 [DRSC00306] the deposit lists induced reporter light, run 1, well a = 1.38e5; induced reporter light, run 1, well b = 1.39e5; control promoter light, run 1, well a = 1.09e5; control promoter light, run 1, well b = 86440; uninduced reporter light, run 1, well a = 9960; inactive.
pyr (pyramus) [DRSC06319] gave induced reporter light, run 1, well a = 1.11e5; induced reporter light, run 1, well b = 97450; control promoter light, run 1, well a = 1.24e5; control promoter light, run 1, well b = 1.23e5; uninduced reporter light, run 1, well a = 9750; inactive.
CG17249 [DRSC08517] showed induced reporter light, run 1, well a = 79465; induced reporter light, run 1, well b = 85120; control promoter light, run 1, well a = 1.62e5; control promoter light, run 1, well b = 1.48e5; uninduced reporter light, run 1, well a = 8300; inactive.

A stretch from the list above, as a working copy:
CG11374 [DRSC00306] | induced reporter light, run 1, well a: 1.38e5; induced reporter light, run 1, well b: 1.39e5; control promoter light, run 1, well a: 1.09e5; control promoter light, run 1, well b: 86440; uninduced reporter light, run 1, well a: 9960; Call: inactive
pyr (pyramus) [DRSC06319] | induced reporter light, run 1, well a: 1.11e5; induced reporter light, run 1, well b: 97450; control promoter light, run 1, well a: 1.24e5; control promoter light, run 1, well b: 1.23e5; uninduced reporter light, run 1, well a: 9750; Call: inactive

Further entries:
Pa1 (PTIP associated 1) [DRSC19422] gave induced reporter light, run 1, well a = 1.38e5; induced reporter light, run 1, well b = 1.08e5; control promoter light, run 1, well a = 1.90e5; control promoter light, run 1, well b = 1.97e5; uninduced reporter light, run 1, well a = 8180; inactive.
For RpL36A (Ribosomal protein L36A) [DRSC03055], the entry reads induced reporter light, run 1, well a = 78085; induced reporter light, run 1, well b = 92600; control promoter light, run 1, well a = 51175; control promoter light, run 1, well b = 61760; uninduced reporter light, run 1, well a = 10955; inactive.
For Obp99b (Odorant-binding protein 99b) [DRSC16264], the values are induced reporter light, run 1, well a = 77820; induced reporter light, run 1, well b = 88560; control promoter light, run 1, well a = 1.18e5; control promoter light, run 1, well b = 1.29e5; uninduced reporter light, run 1, well a = 8300; inactive.
Cib2 (Calcium and integrin binding family member 2) [DRSC04535] scored induced reporter light, run 1, well a = 47905; induced reporter light, run 1, well b = 31465; control promoter light, run 1, well a = 33495; control promoter light, run 1, well b = 35970; uninduced reporter light, run 1, well a = 2440; inactive.
Knock-down of CG1394 [DRSC19539] gave: induced reporter light, run 1, well a = 40830; induced reporter light, run 1, well b = 41355; control promoter light, run 1, well a = 97080; control promoter light, run 1, well b = 79990; uninduced reporter light, run 1, well a = 6615; inactive.
